These are yes or no findings as the source states them, for the method shown. In cells and extracts the contact can be indirect. Some entries that bind do so weakly or less than the wild type.
Target: integrin β4 subunit (human) (UniProt P16144)
Experiment: co-immunoprecipitation with G0H3 from 35S-labelled Caco-2/15 cells and keratinocytes, SDS-PAGE

Amino acid sequences for entries named in this document (tags omitted). Residues count along the entry.
UniProt P16144, residues 28-1822: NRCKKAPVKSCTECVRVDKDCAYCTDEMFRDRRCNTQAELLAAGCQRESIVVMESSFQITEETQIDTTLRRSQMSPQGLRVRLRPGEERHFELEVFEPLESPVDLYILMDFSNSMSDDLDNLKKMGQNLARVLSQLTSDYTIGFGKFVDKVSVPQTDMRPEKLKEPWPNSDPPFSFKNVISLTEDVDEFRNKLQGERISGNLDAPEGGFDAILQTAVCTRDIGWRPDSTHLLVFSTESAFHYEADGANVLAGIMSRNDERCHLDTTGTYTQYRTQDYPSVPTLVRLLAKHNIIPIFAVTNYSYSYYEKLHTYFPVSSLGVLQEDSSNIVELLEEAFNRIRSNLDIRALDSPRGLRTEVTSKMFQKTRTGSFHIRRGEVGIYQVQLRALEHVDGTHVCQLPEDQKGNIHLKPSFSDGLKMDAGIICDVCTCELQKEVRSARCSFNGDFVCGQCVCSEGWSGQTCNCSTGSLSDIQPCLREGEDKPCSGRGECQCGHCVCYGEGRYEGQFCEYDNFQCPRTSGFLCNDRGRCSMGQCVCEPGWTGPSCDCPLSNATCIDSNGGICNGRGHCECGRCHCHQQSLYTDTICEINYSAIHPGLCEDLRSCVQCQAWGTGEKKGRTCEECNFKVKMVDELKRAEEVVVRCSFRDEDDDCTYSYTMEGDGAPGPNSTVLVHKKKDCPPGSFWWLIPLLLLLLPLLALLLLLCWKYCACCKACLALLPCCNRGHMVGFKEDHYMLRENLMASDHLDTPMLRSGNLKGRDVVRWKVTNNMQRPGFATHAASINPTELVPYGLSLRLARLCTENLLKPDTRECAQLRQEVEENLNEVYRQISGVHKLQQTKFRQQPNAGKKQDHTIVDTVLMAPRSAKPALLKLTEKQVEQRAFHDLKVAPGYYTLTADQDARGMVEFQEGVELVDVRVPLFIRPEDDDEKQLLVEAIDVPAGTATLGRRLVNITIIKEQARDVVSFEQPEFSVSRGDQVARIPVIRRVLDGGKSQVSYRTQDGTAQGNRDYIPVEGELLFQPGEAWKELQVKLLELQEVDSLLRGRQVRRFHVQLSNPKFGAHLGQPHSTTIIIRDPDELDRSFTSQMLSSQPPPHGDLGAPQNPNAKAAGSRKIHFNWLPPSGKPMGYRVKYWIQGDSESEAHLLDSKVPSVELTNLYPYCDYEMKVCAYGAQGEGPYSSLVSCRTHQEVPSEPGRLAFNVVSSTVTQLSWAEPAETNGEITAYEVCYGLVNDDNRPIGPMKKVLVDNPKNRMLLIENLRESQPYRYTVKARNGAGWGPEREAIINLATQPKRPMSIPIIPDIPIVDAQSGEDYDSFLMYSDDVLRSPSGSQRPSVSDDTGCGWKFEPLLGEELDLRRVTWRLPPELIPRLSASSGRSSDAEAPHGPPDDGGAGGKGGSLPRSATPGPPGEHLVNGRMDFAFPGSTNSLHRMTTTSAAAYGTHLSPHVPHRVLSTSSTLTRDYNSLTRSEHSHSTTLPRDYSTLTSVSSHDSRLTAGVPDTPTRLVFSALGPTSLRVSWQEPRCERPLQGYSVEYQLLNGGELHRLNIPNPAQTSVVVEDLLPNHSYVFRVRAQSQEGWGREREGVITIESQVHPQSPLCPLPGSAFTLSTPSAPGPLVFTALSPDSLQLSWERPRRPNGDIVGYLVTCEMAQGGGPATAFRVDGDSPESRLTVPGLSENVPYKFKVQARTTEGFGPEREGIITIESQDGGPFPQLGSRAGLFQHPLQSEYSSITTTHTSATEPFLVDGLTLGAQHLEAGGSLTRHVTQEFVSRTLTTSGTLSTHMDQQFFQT

binding: binds
B1: integrin α6 subunit (endogenous, Caco-2/15 cells and keratinocytes) (receptor, human, UniProt P23229-2 24-1073, looked up)
chain: FNLDTREDNVIRKYGDPGSLFGFSLAMHWQLQPEDKRLLLVGAPRAEALPLQRANRTGGLYSCDITARGPCTRIEFDNDADPTSESKEDQWMGVTVQSQGPGGKVVTCAHRYEKRQHVNTKQESRDIFGRCYVLSQNLRIEDDMDGGDWSFCDGRLRGHEKFGSCQQGVAATFTKDFHYIVFGAPGTYNWKGIVRVEQKNNTFFDMNIFEDGPYEVGGETEHDESLVPVPANSYLGFSLDSGKGIVSKDEITFVSGAPRANHSGAVVLLKRDMKSAHLLPEHIFDGEGLASSFGYDVAVVDLNKDGWQDIVIGAPQYFDRDGEVGGAVYVYMNQQGRWNNVKPIRLNGTKDSMFGIAVKNIGDINQDGYPDIAVGAPYDDLGKVFIYHGSANGINTKPTQVLKGISPYFGYSIAGNMDLDRNSYPDVAVGSLSDSVTIFRSRPVINIQKTITVTPNRIDLRQKTACGAPSGICLQVKSCFEYTANPAGYNPSISIVGTLEAEKERRKSGLSSRVQFRNQGSEPKYTQELTLKRQKQKVCMEETLWLQDNIRDKLRPIPITASVEIQEPSSRRRVNSLPEVLPILNSDEPKTAHIDVHFLKEGCGDDNVCNSNLKLEYKFCTREGNQDKFSYLPIQKGVPELVLKDQKDIALEITVTNSPSNPRNPTKDGDDAHEAKLIATFPDTLTYSAYRELRAFPEKQLSCVANQNGSQADCELGNPFKRNSNVTFYLVLSTTEVTFDTPDLDINLKLETTSNQDNLAPITAKAKVVIELLLSVSGVAKPSQVYFGGTVVGEQAMKSEDEVGSLIEYEFRVINLGKPLTNLGTATLNIQWPKEISNGKWLLYLVKVESKGLEKVTCEPQKEINSLNLTESHNSRKKREITEKQIDDNRKFSLFAERKYQTLNCSVNVNCVNIRCPLRGLDSKASLILRSRLWNSTFLEEYSKLNYLDILMRAFIDVTAAAENIRLPNAGTQVRVTVFPSKTVAQYSGVPWWIILVAILAGILMLALLVFILWKCGFFKRNKKDHYDATYHKAEIHAQPSDKERLTSDA

— patent publication US20150276743A1
